Laboratory results reported in PMC10509461.
No constants are given. Whether binding was seen depends on the method and setting. In cells and extracts the contact can be indirect. These calls come from enrichment with a bait or labelling near it, and not all partners need be listed. Blank lines part the entries; values can stand above or below the molecule they belong to.

Chains of the proteins cited; added tags and fusions are not shown.
UniProt Q02650: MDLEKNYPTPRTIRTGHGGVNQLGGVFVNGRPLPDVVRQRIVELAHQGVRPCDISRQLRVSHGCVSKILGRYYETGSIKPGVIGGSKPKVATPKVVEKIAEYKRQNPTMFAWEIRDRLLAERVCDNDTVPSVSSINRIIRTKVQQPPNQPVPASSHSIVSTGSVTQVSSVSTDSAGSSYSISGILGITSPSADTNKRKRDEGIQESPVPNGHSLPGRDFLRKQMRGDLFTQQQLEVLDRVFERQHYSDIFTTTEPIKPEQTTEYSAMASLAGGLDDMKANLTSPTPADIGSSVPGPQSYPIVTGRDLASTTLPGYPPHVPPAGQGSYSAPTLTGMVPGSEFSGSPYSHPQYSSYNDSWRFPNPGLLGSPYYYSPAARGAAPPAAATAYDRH
UniProt P97496: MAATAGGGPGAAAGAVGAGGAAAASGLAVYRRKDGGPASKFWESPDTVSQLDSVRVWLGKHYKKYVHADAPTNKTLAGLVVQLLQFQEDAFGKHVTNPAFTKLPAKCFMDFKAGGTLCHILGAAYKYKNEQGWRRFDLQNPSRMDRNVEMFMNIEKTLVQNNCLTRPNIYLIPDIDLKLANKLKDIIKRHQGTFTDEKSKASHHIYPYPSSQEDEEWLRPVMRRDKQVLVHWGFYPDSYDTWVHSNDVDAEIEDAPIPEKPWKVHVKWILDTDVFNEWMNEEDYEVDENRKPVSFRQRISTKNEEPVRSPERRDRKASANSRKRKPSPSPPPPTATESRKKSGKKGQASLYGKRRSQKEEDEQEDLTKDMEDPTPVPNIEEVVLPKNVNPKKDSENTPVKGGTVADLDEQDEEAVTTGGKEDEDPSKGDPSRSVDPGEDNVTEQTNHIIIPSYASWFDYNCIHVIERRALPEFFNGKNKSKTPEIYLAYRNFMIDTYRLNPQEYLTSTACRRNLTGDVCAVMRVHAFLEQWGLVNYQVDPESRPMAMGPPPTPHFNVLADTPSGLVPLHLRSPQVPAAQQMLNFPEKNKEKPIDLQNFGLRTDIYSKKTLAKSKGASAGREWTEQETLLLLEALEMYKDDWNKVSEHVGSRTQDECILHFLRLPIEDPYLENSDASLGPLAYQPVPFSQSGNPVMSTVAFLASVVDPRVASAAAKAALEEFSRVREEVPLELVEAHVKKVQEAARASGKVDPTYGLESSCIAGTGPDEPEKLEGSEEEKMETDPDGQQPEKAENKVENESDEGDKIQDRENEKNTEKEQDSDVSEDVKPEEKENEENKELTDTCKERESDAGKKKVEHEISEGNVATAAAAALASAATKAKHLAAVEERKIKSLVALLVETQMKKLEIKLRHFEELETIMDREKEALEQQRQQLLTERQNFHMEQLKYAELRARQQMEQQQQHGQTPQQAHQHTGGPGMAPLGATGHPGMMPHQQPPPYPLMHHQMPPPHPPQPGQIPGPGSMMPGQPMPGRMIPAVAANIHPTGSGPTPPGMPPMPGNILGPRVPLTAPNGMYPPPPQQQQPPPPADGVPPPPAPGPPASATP
UniProt O54941: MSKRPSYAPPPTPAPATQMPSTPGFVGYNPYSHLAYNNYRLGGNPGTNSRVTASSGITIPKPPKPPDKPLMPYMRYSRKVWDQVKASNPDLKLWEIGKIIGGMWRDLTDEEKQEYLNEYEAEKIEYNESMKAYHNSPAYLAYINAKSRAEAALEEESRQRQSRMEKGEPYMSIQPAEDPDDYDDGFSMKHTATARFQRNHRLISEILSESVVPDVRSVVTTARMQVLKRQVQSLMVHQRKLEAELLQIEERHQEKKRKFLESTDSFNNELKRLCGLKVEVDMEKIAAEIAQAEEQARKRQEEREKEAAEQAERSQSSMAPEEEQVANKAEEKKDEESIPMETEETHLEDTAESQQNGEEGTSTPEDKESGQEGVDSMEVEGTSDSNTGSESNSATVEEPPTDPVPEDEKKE
UniProt Q3TKT4: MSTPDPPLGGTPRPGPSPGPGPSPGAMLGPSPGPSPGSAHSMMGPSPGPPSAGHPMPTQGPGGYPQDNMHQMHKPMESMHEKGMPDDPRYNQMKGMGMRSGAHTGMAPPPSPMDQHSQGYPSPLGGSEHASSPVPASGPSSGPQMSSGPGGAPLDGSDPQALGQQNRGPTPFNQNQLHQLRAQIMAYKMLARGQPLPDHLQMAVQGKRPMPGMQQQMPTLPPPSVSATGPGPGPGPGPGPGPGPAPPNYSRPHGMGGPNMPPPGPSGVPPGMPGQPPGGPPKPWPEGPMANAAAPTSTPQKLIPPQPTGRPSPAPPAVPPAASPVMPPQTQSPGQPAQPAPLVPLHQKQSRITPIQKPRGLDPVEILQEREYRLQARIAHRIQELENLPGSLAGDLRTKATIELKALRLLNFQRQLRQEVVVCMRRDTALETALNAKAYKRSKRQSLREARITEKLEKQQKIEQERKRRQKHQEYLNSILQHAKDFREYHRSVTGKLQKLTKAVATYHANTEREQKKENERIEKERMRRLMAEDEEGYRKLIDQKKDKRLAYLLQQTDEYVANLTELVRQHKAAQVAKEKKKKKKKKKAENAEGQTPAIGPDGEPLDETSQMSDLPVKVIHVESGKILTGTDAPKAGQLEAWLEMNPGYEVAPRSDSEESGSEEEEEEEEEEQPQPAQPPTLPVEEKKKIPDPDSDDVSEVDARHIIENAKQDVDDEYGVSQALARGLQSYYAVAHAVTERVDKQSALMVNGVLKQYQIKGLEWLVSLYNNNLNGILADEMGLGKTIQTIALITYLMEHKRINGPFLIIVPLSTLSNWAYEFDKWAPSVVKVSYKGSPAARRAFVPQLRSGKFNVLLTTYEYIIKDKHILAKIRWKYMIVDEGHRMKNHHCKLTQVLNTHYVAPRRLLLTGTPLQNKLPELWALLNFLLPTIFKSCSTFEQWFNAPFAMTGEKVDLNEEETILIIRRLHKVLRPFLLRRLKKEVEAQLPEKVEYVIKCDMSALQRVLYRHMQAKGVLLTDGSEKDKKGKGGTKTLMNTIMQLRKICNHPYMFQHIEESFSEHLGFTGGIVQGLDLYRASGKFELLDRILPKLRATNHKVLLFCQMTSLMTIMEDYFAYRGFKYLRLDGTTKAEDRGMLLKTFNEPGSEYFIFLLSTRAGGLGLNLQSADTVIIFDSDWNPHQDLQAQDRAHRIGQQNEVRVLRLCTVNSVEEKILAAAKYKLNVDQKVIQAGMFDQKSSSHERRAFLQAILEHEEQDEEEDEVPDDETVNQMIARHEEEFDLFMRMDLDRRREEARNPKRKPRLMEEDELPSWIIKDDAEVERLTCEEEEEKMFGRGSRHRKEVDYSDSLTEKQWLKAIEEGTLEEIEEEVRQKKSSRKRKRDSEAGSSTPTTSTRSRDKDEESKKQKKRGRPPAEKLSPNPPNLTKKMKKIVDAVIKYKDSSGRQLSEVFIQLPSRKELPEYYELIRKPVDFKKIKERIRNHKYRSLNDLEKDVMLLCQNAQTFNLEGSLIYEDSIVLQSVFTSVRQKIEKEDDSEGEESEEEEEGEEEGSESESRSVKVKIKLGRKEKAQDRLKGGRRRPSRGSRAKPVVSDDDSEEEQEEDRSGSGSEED
UniProt Q61466: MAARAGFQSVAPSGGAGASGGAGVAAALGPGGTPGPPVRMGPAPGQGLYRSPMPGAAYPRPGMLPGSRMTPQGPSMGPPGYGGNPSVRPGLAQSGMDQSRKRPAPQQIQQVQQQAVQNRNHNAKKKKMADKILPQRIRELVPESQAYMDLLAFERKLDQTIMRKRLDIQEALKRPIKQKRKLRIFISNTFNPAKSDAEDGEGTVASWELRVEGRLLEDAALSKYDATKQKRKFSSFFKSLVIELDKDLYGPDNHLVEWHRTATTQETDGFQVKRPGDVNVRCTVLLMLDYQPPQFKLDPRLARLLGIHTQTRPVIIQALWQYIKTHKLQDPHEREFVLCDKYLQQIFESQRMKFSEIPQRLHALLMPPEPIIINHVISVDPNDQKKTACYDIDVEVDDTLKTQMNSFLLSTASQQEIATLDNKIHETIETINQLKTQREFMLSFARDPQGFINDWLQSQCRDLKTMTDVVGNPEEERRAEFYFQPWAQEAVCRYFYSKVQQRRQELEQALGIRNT

Biological target: full-length Pax5 protein (mouse) (UniProt Q02650)
Assay: affinity purification with mass spectrometry; Co-IP-MS: nuclear extracts of in vitro cultured Pax5+/+, Pax5∆CRD1/− or Pax5∆CRD1,2/− pro-B cells, IP with anti-Pax5 paired domain antibody on Protein A Mag Sepharose beads, 2 h at 4°C; washes with 20 mM Tris pH 8.0, 1.5 mM MgCl2, 10% glycerol, 250 mM NaCl, 0.15% NP-40; label-free quantification, abundance normalized to equal amounts of the bait (Pax5)

binding: binds
Molecule: Smarcc1 (Baf155) (from UniProt P97496 1-1104)

binding: binds
Molecule: Smarce1 (Baf57) (from UniProt O54941 1-411)

binding: binds
Molecule: Smarca4 (Brg1) (from UniProt Q3TKT4 1-1613)

binding: binds
Molecule: Smarcd1 (Baf60A) (from UniProt Q61466 1-515)

binding: binds
B1: Suds3 (Sds3) (protein, UniProt Q8BR65 1-328)
chain: MSAAGLLAPAPAPAAAPAAPEYYPEDEEELESAEDDERSCRGRESDEDTEDASETDLAKHDEEDYVEMKEQMYQDKLASLKRQLQQLQEGTLQEYQKRMKKLDQQYRERIRNAELFLQLETEQVERNYIKEKKAAVKEFEDKKVELKENLIAELEEKKKMIENEKLTMELTGDSMEVKPIMTRKLRRRPNDPVPIPDKRRKPAPAQLNYLLTDEQIMEDLRTLNKLKSPKRPASPSSPEHLPATPAESPAQRFEARIEDGKLYYDKRWYHKSQAIYLESKDNQKLSCVISSVGANEIWVRKTSDSTKMRIYVGQLQRGLFVIRRRSAA

binding: binds
B2: Arid4b (Sap180) (protein, UniProt A2CG63 1-1314)
chain: MKALDEPPYLTVGTDVSAKYRGAFCEAKIKTAKRLVKVKVTFRHDSSTVEVQDDHIKGPLKVGAIVEVKNLDGAYQEAVINKLTDASWYTVVFDDGDEKTLRRSSLCLKGERHFAESETLDQLPLTNPEHFGTPVIGKKTNRGRRSNHIPEEESSSSSSDDDEEERKQTDELLGKVVCVDYVSLEKKKAMWFPALVVCPDCSDEIAVKKDNILVRSFKDGKFTSVPRKDVHEITSDTVPKPDAVLKQAFDQALEFHKSRAIPANWKTELKEDSSSSEAEEEEEEEDDEKEKEDNSSEEEEEIEPFPEERENFLQQLYKFMEDRGTPINKRPVLGYRNLNLFKLFRLVHKLGGFDNIESGAVWKQVYQDLGIPVLNSAAGYNVKCAYKKYLYGFEEYCRSANIDFQMALPEKVLNKPCKDCENKEVKVKEESETEIKEVNVEDSKNVMPKEETPAEDESERKENIKPSLGSKKSLLECIPAQSDEEKEAHITKLEENENLEDKDGGRARTEEAFSTEVDGEEEQARSGDETNKEEDEDDEEIEEEEEEDEEEDEDEDDDDNNEEEEFECYPPGMKVQVRYGRGKNQKMYEASIKDSDVEGGEALYLVHYCGWNVRYDEWIKADKIVRPADKNVPKIKHRKKIKNKLDKEKDRDEKYSPKNCKLRRLSKSPFQSNPSPEMVSKLDLADAKNSDTAHIKSIEITSILNGLQASESSAEDSEQEDERCTQDVDNIGKDESKVEHSTHSRNELISKEEQSSPSLLEENKVHTDLVIAKTVSKSPERLRKDMEAISEDTDFEEEDEITKKRKDVKKDTTDKALKPQTKRGKRRYCSADECLQTGSPGKKEDRTKSKEPLCTENSSNSSSDEDEEEKSKAKMTPTKKYNGLEEKRKSLRTTSFYSGFSEVAEKRIKLLNNSDERLQNNRAKDRKDVWSSIQGQWPKKTLKELFSDSDTEAAASPPHPAPDEGAVEESLQTVAEEESCSPIMELEKPLPASVDNKPIEEKPLEVSDRKTEFPSSGSNSVLNTPPTTPESPSSVTITEASQQQSSVTVSVPLPPNQEEVRSIKSETDSTIEVDSVVGELQDLQSEGNSSPAGFDASVSSSSSNQPEPDNPEKACTGQKRVKDTQGVGSSSKKQKRSHKATVVNNKKKGKGTNSSDSEELSAGESVTKTQTIKSVPTGMKTHNSKSPARVQSPGKGGRNGDKDPDLKEPSNRLPKVYKWSFQTSDLENMTSAERISILQEKLQEIRKHYLSLKSEVASIDRRRKRLKKKERESAATSSSSSSPSSSSITAAVMLTLAEPSMSSASQNGMSVECR

binding: binds
B3: Arid4a (Rbp1) (protein, UniProt F8VPQ2 1-1261)
chain: MKAADEPAYLTVGTDVSAKYRGAFCEAKIKTVKRLVKVKVLLKQDNTTQLVQDDQVKGPLRVGAIVETRTSDGSIQEAIISKLTDASWYTVVFDDGDERTLRRTSLCLKGERHFAESETLDQLPLTNPEHFGTPVIAKKTNRGRRSSLPITEDEKEEESSEEEDEDKRRLNDELLGKVVSVASTAESTGWYPALVVSPSCNDDVTVKKDQCLVRSFIDSKFYSIARKDIKELDILTLPESELCARPGLRRASVFLKGRIVPDNWKMDISEILESSSSDDEECPAEEHEEEKEKEAKKEEEELPEEELDPEERDNFLQQLYKFMEDRGTPINKPPVLGYKDLNLFKLFRLVYHQGGCGNIDSGAVWKQIYMDLGIPILNSAASYNVKTAYRKYLYGFEEYCRSANIQFRTIHHHEPKVKEEKKDFEDSMDEALKEAPEMPLLDVKSEPEENTDSNSESDREDTELKSPRGRRKIVRDANCIKKEIEEEKIEDKFLRDDLENKDAGDDDDDGDPAAKREHELLFGRKSTPKNKEKKIKKPEDSERDSDEEEEKSQEREETESRCDSEGEDEEDDTEPCLTGTKVKVKYGRGKTQKIYEASIKSTEMDDGEILYLVHYYGWNVRYDEWVKADRIIWPLDKGGPKKKQKKKVKNKEDSEKDEKRDEERQKSKRGRPPLKSTFSPNMPYSLSKTSNSEGKSDSCSSDSEADDQLEKSSGGEDLSPDVKEELEKNENAHDDKLDEENPKIVHISKENDRTQAQPSDTLTVEAGDSDQIVHIFGDKVDQVEEFKKQVEKSPKGKGRRSKTKDLSLELIKISPFGQEEAGSEAHGDVHSLEFSSLECKNFSSTEDDIDPYEKEKKLKRKILGQQSPEKKLRLDNGMEMTTGVSQERSDDGAGAEGMKGAHVEQHFETEGEGMPSLTAEPDQGLQELTSEKSDSPAEEEPVHTPLKEEEDAMPLIGPETLVCHEVDLDDLDEKDKTSIEDVVVEGSESNSLASVPPALPPVAQHNFSVASPLTLSQDESRSIKSESDITIEVDSIAEESQEGLCERESANGFEASVASGACSIIAHERESREKGQKRPSDGNSGLIAKKQKRTPKRTSAAAKTEKNGAGQSSDSEDLPAMDSSSNCTPVKRLTLPKSQKLPRSPARTSPHIKDAEKEKHREKHPNSSPRTYKWSFQLNELDNMNSTERISFLQEKLQEIRKYYMSLKSEVATIDRRRKRLKKKDREVSHAGASMSSASSDTGMSPSSSSPPQNVLAVECR
